Drawing on publication PMC11322666, this text covers binding for two substances.

The assay addresses T1, GST-UPF3B fusion protein (human) (UniProt Q9BZI7).
T1 sequence: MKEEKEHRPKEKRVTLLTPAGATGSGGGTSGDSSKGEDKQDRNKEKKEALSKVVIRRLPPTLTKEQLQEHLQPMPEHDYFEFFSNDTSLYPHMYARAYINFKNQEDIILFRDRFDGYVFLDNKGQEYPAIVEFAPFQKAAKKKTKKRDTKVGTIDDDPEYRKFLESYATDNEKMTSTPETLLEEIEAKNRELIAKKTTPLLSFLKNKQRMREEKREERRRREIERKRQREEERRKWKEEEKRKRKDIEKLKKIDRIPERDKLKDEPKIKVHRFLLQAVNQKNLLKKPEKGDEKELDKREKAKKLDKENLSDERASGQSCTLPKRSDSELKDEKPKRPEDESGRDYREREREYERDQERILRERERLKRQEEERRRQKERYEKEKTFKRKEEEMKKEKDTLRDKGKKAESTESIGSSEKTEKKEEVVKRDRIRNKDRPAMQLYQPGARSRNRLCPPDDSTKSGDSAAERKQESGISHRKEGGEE
In words: pull-down; GST fusion protein from Rosetta cells on Glutathione Sepharose beads, incubated with HEK293T lysate for 4 h at 4 °C, washed three times with RIPA buffer, western blot with anti-Flag or anti-GST; only the target purified.

These are yes or no findings as the source states them, for the method shown. Binding seen in cells or lysates may run through a third protein. Binding calls can cover weak binding; strength is not graded here. Tags and fused reporters may be left off the sequences shown.

Turning to “IRE1α^ΔR-Flag (human) (domain or fragment)”, the binding result was “binds”.
On to “IRE1α^ΔKR-Flag (human) (domain or fragment)”, for which the binding result is “no binding”.
